Laboratory results reported in publication PMC10709559.
No constants are given. Whether binding was seen depends on the method and setting. In cells and extracts the contact can be indirect. Some binding calls cover weakened binding; strength is not graded here. Where a sequence is shown, tags or fusion partners need not be part of it.

Molecular target: T1, CTCF (human (endogenous in HEK293)) (UniProt P49711)
T1 sequence: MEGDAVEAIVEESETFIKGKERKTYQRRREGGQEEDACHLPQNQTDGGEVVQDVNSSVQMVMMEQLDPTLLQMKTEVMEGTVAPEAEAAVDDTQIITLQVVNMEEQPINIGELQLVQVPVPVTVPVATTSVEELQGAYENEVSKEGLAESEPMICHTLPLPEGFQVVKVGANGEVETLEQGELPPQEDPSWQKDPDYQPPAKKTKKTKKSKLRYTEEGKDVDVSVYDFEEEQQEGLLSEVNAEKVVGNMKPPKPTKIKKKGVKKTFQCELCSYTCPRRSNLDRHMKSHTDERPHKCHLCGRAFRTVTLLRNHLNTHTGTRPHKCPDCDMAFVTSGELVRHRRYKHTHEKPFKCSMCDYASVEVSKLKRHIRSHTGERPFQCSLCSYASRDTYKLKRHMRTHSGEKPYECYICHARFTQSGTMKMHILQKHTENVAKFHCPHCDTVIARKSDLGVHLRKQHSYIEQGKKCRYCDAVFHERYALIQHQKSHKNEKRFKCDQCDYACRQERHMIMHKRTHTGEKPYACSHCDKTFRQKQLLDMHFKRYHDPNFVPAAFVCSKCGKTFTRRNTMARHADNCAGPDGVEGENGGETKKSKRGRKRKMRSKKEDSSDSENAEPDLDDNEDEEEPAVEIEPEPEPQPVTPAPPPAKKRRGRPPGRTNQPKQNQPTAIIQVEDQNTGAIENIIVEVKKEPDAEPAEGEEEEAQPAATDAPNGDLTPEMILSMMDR
Assay: co-IP; HEK293 transfected with ΔNp63α-HA, lysed 24 h later in Triton buffer (150 mM NaCl, 50 mM Tris HCl, 0.5% Triton); 2 mg lysate; anti-CTCF or IgG isotype control on Protein A Sepharose, overnight at 4 °C; Western blot for HA and CTCF

binding: binds
B1: ΔNp63α-HA (protein, UniProt Q9H3D4-2 1-586)
chain: MLYLENNAQTQFSEPQYTNLGLLNSMDQQIQNGSSSTSPYNTDHAQNSVTAPSPYAQPSSTFDALSPSPAIPSNTDYPGPHSFDVSFQQSSTAKSATWTYSTELKKLYCQIAKTCPIQIKVMTPPPQGAVIRAMPVYKKAEHVTEVVKRCPNHELSREFNEGQIAPPSHLIRVEGNSHAQYVEDPITGRQSVLVPYEPPQVGTEFTTVLYNFMCNSSCVGGMNRRPILIIVTLETRDGQVLGRRCFEARICACPGRDRKADEDSIRKQQVSDSTKNGDGTKRPFRQNTHGIQMTSIKKRRSPDDELLYLPVRGRETYEMLLKIKESLELMQYLPQHTIETYRQQQQQQHQHLLQKQTSIQSPSSYGNSSPPLNKMNSMNKLPSVSQLINPQQRNALTPTTIPDGMGANIPMMGTHMPMAGDMNGLSPTQALPPPLSMPSTSHCTPPPPYPTDCSIVSFLARLGCSSCLDYFTTQGLTTIYQIEHYSMDDLASLKIPEQFRHAIWKGILDHRQLHEFSSPSHLLRTPSSASTVSVGSSETRGERVIDAVRFTLRQTISFPPRDEWNDFNFDMDARRNKQQRIKEEGE
